The target of this assay is T1, C-terminally His-tagged MSMEG_0317 expressed from an integrative plasmid in M. smegmatis (M. smegmatis) (UniProt A0QP93).
T1 sequence: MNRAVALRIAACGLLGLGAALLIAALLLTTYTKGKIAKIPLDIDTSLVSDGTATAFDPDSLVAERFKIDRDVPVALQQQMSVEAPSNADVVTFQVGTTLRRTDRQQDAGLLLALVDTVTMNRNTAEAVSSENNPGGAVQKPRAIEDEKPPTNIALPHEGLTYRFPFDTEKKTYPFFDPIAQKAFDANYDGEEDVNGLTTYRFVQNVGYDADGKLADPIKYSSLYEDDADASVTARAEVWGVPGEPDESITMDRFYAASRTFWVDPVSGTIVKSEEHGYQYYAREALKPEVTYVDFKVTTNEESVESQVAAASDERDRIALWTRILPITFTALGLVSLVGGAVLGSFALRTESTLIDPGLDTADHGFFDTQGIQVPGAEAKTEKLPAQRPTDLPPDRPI
Briefly: affinity purification with mass spectrometry.

These are yes or no findings as the source states them, for the method shown. Binding seen in cells or lysates may run through a third protein. These calls come from enrichment with a bait or labelling near it, and not all partners need be listed. A no says only that the protein was not detected with the bait. Sequences can lack the tags named with a protein.

With “Mycobacterial membrane protein Large 3 (MmpL3) (from UniProt A0QP27 1-1013)”, the binding entry is given as “no binding”. For TmaT (putative acetyltransferase), the binding result is recorded as “no binding”.

The record behind these values is publication doi:10.1101/2023.05.02.539095 (bioRxiv, 2023).
